# From the supplement of paper PMC8728848
# The list shows a part of the results.
# How the values were obtained:
# Assay in all cases: glycan array binding signal (z-score within array); higher = stronger binding
# Details in all cases: glycan notation: IUPAC condensed, linker removed
# [1] = biological target: Gal(b1-4)GlcNAc(b1-6)Gal(b1-4)GlcNAc
# Method in brief: (§1)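 Arrays were curated from the Consortium for Functional Glycomics database, 3228 in total, and kept only where the protein sequence was available. Binding is expressed as a within-array Z-score. This score was averaged across arrays of the same protein sequence at different concentrations or buffers and across linkers, and negative values can be read as non-binding.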
# [2] = biological target: Gal(b1-4)GlcNAc(b1-6)GalNAc
# Method in brief: as §1
# [3] = biological target: Gal(b1-4)GlcNAc(b1-6)[Gal(b1-3)]GalNAc
# Method in brief: as §1
# [4] = biological target: Gal(b1-4)GlcNAc(b1-6)[Gal(b1-4)GlcNAc(b1-3)]GalNAc
# Method in brief: as §1
# [5] = biological target: Gal(b1-4)GlcNAc6P
# Method in brief: as §1
# [6] = biological target: Gal(b1-6)Gal
# Method in brief: as §1
# [7] = biological target: Gal3S(b1-3)GalNAc
# Method in brief: as §1
# [8] = biological target: Gal3S(b1-3)GlcNAc
# Method in brief: as §1
# [9] = biological target: Gal3S(b1-3)[Fuc(a1-4)]GlcNAc
# Method in brief: as §1
# [10] = biological target: Gal3S(b1-4)Glc
# Method in brief: as §1
# [11] = biological target: Gal3S(b1-4)Glc6S
# Method in brief: as §1
# [12] = biological target: Gal3S(b1-4)GlcNAc
# Method in brief: as §1
# [13] = biological target: Gal3S(b1-4)[Fuc(a1-3)]Glc6S
# Method in brief: as §1
# [14] = biological target: Gal3S(b1-4)[Fuc(a1-3)]GlcNAc
# Method in brief: as §1
# [15] = biological target: Gal3S(b1-4)[Fuc(a1-3)]GlcNAc6S
# Method in brief: as §1
# [16] = biological target: Gal3S4S(b1-4)GlcNAc
# Method in brief: as §1
# [17] = biological target: Gal3S6S(b1-4)GlcNAc
# Method in brief: as §1
# [18] = biological target: Gal3S6S(b1-4)GlcNAc6S
# Method in brief: as §1
# [19] = biological target: Gal4S(b1-4)GlcNAc
# Method in brief: as §1
# [20] = biological target: Gal4S6S(b1-4)GlcNAc
# Method in brief: as §1
# [21] = biological target: Gal6P(b1-4)GlcNAc
# Method in brief: as §1
# [22] = biological target: Gal6S(b1-3)GlcNAc
# Method in brief: as §1
# [23] = biological target: Gal6S(b1-3)GlcNAc6S
# Method in brief: as §1
binder,measurement,setting,value
"XTP3-B-MRH1 (Homo sapiens), Q96DZ1 (protein) LLEPLFKQSSCSYRIESYWTYEVCHGKHIRQYHEEKETGQKINIHEYYLGNMLAKNLLFEKEREAEEKEKSNEIPTKNIEGQMTPYYPVGMGNGTPCSLKQNRPRSSTVMYICHPESKHEILSVAEVTTCEYEVVILTPLLCSHPKYRFRA",glycan array binding signal (z-score),[1],-1.39
same,glycan array binding signal (z-score),[2],0.007
same,glycan array binding signal (z-score),[3],-0.431
same,glycan array binding signal (z-score),[4],-0.532
same,glycan array binding signal (z-score),[5],0.316
same,glycan array binding signal (z-score),[6],-1.21
same,glycan array binding signal (z-score),[7],-0.113
same,glycan array binding signal (z-score),[8],0.608
same,glycan array binding signal (z-score),[9],0.441
same,glycan array binding signal (z-score),[10],-0.327
same,glycan array binding signal (z-score),[11],0.744
same,glycan array binding signal (z-score),[12],1.03
same,glycan array binding signal (z-score),[13],1.18
same,glycan array binding signal (z-score),[14],-0.28
same,glycan array binding signal (z-score),[15],-0.589
same,glycan array binding signal (z-score),[16],-0.679
same,glycan array binding signal (z-score),[17],-0.594
same,glycan array binding signal (z-score),[18],-0.392
same,glycan array binding signal (z-score),[19],0.853
same,glycan array binding signal (z-score),[20],0.263
same,glycan array binding signal (z-score),[21],0.11
same,glycan array binding signal (z-score),[22],0.319
same,glycan array binding signal (z-score),[23],1.43

# Given with tabs: entries from further up.
binder	measurement	setting	value
XTP3-B-MRH1 (Homo sapiens), Q96DZ1 (protein) LLEPLFKQSSCSYRIESYWTYEVCHGKHIRQYHEEKETGQKINIHEYYLGNMLAKNLLFEKEREAEEKEKSNEIPTKNIEGQMTPYYPVGMGNGTPCSLKQNRPRSSTVMYICHPESKHEILSVAEVTTCEYEVVILTPLLCSHPKYRFRA	glycan array binding signal (z-score)	[7]	-0.113
same	glycan array binding signal (z-score)	[13]	1.18
